PubChem BioAssay AID504808, Drosophila RNAi Screening Center – 2011
The screen tested about 21,000 reagents; shown is an unselected part of those that have a named target and a result. Of all reagents, 18 (0.084%) are marked active. 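Raw counts without plate normalisation, one of two replicates; the ratio scores behind the calls were not deposited.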 Unmarked entries are inactive. A plus sign joins genes that one reagent is predicted to hit. Not stated in the record: the amount of reagent, the time to read-out.

- Test: 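Genes whose loss lifts activity of an E2F-responsive reporter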 (primary screen)
- System: Drosophila S2 cells
- Reagents: long dsRNA against Drosophila genes
- Read-out: 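Firefly luciferase driven by E2F sites, normalised to Renilla luciferase on the same minimal promoter, measured by plate reader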
- Reading the numbers: E2F firefly: higher = more E2F reporter activity; Renilla normaliser: higher = more normaliser reporter signal
- Rule for the call: 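a knock-down counted as active when the firefly/Renilla E2F signal rose above 50%, a threshold chosen arbitrarily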

CG42816 + CG42815 [DRSC11230] → E2F firefly, rep 1: 1.68e5; Renilla normaliser, rep 1: 8186
CG14095 [DRSC10098] → E2F firefly, rep 1: 1.43e5; Renilla normaliser, rep 1: 6001
CG8461 [DRSC16424] → E2F firefly, rep 1: 82492; Renilla normaliser, rep 1: 3344
Vm32E [DRSC03474] → E2F firefly, rep 1: 1.82e5; Renilla normaliser, rep 1: 4824
CG8142 [DRSC20086] → E2F firefly, rep 1: 1.56e5; Renilla normaliser, rep 1: 5572
Eglp3 [DRSC04293] → E2F firefly, rep 1: 99242; Renilla normaliser, rep 1: 4357
Ccs [DRSC06692] → E2F firefly, rep 1: 1.49e5; Renilla normaliser, rep 1: 5427
Ir52b [DRSC06263] → E2F firefly, rep 1: 89222; Renilla normaliser, rep 1: 3662
MED17 [DRSC16889] → E2F firefly, rep 1: 56851; Renilla normaliser, rep 1: 3076
CG31459 [DRSC13380] → E2F firefly, rep 1: 81072; Renilla normaliser, rep 1: 2870
Ugt49B2 [DRSC16049] → E2F firefly, rep 1: 1.46e5; Renilla normaliser, rep 1: 7333
CG33679 [DRSC01436] → E2F firefly, rep 1: 1.34e5; Renilla normaliser, rep 1: 5423
CG15890 [DRSC19737] → E2F firefly, rep 1: 1.51e5; Renilla normaliser, rep 1: 5998
CG12863 [DRSC06203] → E2F firefly, rep 1: 1.04e5; Renilla normaliser, rep 1: 3656
CG6790 [DRSC16117] → E2F firefly, rep 1: 77641; Renilla normaliser, rep 1: 3709
CG14673 (retired record) [DRSC12259] → E2F firefly, rep 1: 1.26e5; Renilla normaliser, rep 1: 6390
Fur1 [DRSC13707] → E2F firefly, rep 1: 88896; Renilla normaliser, rep 1: 2465
Fur1 [DRSC16676] → E2F firefly, rep 1: 1855; Renilla normaliser, rep 1: 888
Rpp14b [DRSC15063] → E2F firefly, rep 1: 1.16e5; Renilla normaliser, rep 1: 5953
Adf1 [DRSC04941] → E2F firefly, rep 1: 1.43e5; Renilla normaliser, rep 1: 4910
Adf1 [DRSC04963] → E2F firefly, rep 1: 78013; Renilla normaliser, rep 1: 3502
CG4707 [DRSC04483] → E2F firefly, rep 1: 87793; Renilla normaliser, rep 1: 3818
CG33784 [DRSC12764] → E2F firefly, rep 1: 67386; Renilla normaliser, rep 1: 3487
Kua [DRSC02100] → E2F firefly, rep 1: 1.01e5; Renilla normaliser, rep 1: 4202
Naa30B [DRSC08245] → E2F firefly, rep 1: 88595; Renilla normaliser, rep 1: 4284
Helz [DRSC11072] → E2F firefly, rep 1: 79354; Renilla normaliser, rep 1: 3519
CG9747 [DRSC16554] → E2F firefly, rep 1: 80372; Renilla normaliser, rep 1: 804
Prps [DRSC08994] → E2F firefly, rep 1: 1.63e5; Renilla normaliser, rep 1: 4422
Prps [DRSC10707] → E2F firefly, rep 1: 1.02e5; Renilla normaliser, rep 1: 4682
Prps [DRSC10708] → E2F firefly, rep 1: 1.13e5; Renilla normaliser, rep 1: 5839
TppII [DRSC07565] → E2F firefly, rep 1: 2709; Renilla normaliser, rep 1: 177
Grx1t [DRSC04530] → E2F firefly, rep 1: 92659; Renilla normaliser, rep 1: 3929
btl [DRSC11331] → E2F firefly, rep 1: 1.04e5; Renilla normaliser, rep 1: 4741
Gpdh3 [DRSC13561] → E2F firefly, rep 1: 86601; Renilla normaliser, rep 1: 3261
Gpdh3 [DRSC15325] → E2F firefly, rep 1: 1.49e5; Renilla normaliser, rep 1: 6667
NijB [DRSC09850] → E2F firefly, rep 1: 52780; Renilla normaliser, rep 1: 3209

Records above whose gene name begins with P or p (3):
Prps [DRSC08994] → E2F firefly, rep 1: 1.63e5; Renilla normaliser, rep 1: 4422
Prps [DRSC10707] → E2F firefly, rep 1: 1.02e5; Renilla normaliser, rep 1: 4682
Prps [DRSC10708] → E2F firefly, rep 1: 1.13e5; Renilla normaliser, rep 1: 5839
